Measurements: patent publication US10792384B2, “Rolled fibrous structures comprising encapsulated malodor reduction compositions” (The Procter & Gamble Company, priority 2017, dated 2020)

Assay: Fragrance Fidelity Index (FFI), expert graders smelling treated fabric swatches against ethyl vanillin reference scale
[1] = test material 10 ppm, 13 μL on swatch, scale 0-3
[2] = test material 50 ppm, 13 μL on swatch, scale 0-3
[3] = Conc 10 ppm of test material on fabric swatch
[4] = Conc 50 ppm of test material on fabric swatch

## CC(=O)OC1CC2CC1C1CC=CC21 (stereo not drawn) [Material 281]
[1]
  FFI: 0
[2]
  FFI: 0.5

## COC(=O)OC1CCC=CCCC1 (stereo not drawn) [Material 1139]
[1]
  FFI: 0
[2]
  FFI: 1.0

## CC(C)(C)C1CCCCC1 [4-tert-butyl cyclohexane]
[1]
  FFI: 0
[2]
  FFI: 0.3

## CCC(O)COC1CCCCC1C(C)(C)C (stereo not drawn) [Material 677]
[1]
  FFI: 0
[2]
  FFI: 1.8

## C=C1CCC2OC2(C)CCC2C1CC2(C)C (stereo not drawn) [Material 1148]
[2]
  FFI: 0.5

## CC1(C)CCc2ccc(CCC=O)cc21 [Material 261]
[1]
  FFI: 0
[2]
  FFI: 1.3

## CC1(C)C2CCC3(C2)C1C(=O)CCC3(C)C (stereo not drawn) [Material 1149]
[1]
  FFI: 0
[2]
  FFI: 0.8

## C=C/C(C)=C\CC=C(C)C [Material 524]
[2]
  FFI: 0

## CCCCCCCCCCCCO [Material 174]
[2]
  FFI: 0.5

## O=C1CCC2CCCCC2O1 (stereo not drawn) [3,4,4a,5,6,7,8,8a-octahydrochromen-2-one]
[1]
  FFI: 0
[2]
  FFI: 0

## CCCCCCCCCCCC(=O)OCC [Material 391]
[2]
  FFI: 0.3

## CC1(C)CCc2ccc(CCC=O)cc21
[3]
  FFI: 0
[4]
  FFI: 0.5

## CCCCCCCCCCCO [Undecanol]
[2]
  FFI: 0.8

## CC1CCC2(C(C)C)CC(C)OC2C1 (stereo not drawn)
[4]
  FFI: 0.3

## CCOC(=O)OC1C(C)CCC(C)C1C (stereo not drawn) [Material 1005]
[2]
  FFI: 0.5

## CC(CCO)CCc1ccccc1 (stereo not drawn) [Material 962]
[1]
  FFI: 0
[2]
  FFI: 0.5

## CCC(=O)OC1CC2C3C=CCC3C1C2(C)C (stereo not drawn)
[3]
  FFI: 0
[4]
  FFI: 0
